Chains of the proteins cited; added tags and fusions are not shown.
UniProt Q14191, whole entry, looked up: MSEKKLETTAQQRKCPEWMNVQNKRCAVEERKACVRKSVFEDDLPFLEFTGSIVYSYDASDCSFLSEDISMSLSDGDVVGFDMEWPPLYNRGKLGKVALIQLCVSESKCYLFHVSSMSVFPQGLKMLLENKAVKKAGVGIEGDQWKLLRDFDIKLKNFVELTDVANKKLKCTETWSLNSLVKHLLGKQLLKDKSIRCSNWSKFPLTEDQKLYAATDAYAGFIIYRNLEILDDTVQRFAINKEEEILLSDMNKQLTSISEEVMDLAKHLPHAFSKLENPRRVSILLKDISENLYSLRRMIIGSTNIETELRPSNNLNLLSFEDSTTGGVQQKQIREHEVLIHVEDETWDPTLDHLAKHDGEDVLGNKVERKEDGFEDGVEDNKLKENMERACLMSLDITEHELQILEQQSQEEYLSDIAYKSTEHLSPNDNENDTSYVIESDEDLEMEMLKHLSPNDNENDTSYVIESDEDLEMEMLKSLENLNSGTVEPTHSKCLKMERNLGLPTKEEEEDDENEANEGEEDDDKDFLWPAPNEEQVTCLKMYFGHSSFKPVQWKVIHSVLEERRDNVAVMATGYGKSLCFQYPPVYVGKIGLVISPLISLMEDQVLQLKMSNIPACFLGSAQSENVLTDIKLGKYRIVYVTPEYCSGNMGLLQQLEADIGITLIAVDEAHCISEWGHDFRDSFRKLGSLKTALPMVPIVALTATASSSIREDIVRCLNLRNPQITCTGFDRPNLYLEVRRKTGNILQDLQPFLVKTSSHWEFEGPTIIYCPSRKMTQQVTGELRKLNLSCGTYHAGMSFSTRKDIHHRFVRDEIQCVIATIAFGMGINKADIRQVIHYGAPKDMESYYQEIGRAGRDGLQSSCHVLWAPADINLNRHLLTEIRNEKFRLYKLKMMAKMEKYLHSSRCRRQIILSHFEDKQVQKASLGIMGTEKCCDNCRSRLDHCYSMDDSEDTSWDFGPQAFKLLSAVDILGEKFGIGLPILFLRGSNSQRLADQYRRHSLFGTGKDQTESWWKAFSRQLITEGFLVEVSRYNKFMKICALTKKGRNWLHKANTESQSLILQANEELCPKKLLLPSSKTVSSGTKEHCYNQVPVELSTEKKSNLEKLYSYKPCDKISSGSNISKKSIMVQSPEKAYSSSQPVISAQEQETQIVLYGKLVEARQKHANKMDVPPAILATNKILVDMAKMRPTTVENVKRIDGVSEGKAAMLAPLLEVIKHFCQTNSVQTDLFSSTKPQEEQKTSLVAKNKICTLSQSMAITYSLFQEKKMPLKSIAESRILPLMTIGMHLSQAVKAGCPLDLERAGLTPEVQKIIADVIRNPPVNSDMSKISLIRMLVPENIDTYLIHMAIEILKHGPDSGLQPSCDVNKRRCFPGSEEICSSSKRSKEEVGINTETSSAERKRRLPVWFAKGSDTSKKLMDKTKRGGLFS

Screen size: about 360,000 compounds; about 1,700 (0.47%) were called active. The shares of active, inactive and inconclusive entries below differ from those in the screen. Calls follow the shape of the dose curve; as a rule, active = well fitted inhibition curve with a large enough effect; inconclusive = small, poorly fitted or top-dose-only effect; inactive = no such curve, though single readings can be large or run the other way. A potency beside an inconclusive call is a rough fit, not a confirmed value. The source holds several records for some structures; these can differ, active in one and inactive in another.
Each compound was assayed against Bifunctional 3'-5' exonuclease/ATP-dependent helicase WRN (Homo sapiens) (UniProt Q14191) (assay: qHTS for Inhibitors of WRN Helicase). Conditions: WRN helicase unwinding, fluorescent forked duplex, kinetic; activity change, negative = inhibition: at 114 µM (top of the series) unless noted.
In short: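 Enzyme (20 nM final) and test compound sit together 15 min at room temperature before substrate addition. Substrate is a single-forked duplex oligonucleotide (100 nM) labelled with fluorophore and quencher, with 2 mM ATP; helicase unwinding raises red fluorescence, read kinetically.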
With `O=C(CCl)N1c2ccccc2Sc2c1ccc1ccccc21` the Potency was inconclusive: 22.4 µM [inhibitor, single point]. For `CCN(CCO)c1ccc(N=Nc2cc(C)[nH]n2)cc1`, the Potency was inconclusive: 14.1 µM [inhibitor, partial curve]. `O=C(CCN1CCc2ccccc2CC1)c1ccc2c(c1)OCCO2` was tested, and the Potency was inconclusive: 56.2 µM [inhibitor, partial curve]. `O=C(CNC(=O)C1CCCCC1)OCC(=O)c1ccc(Br)cc1` was tested, and the Potency was “inactive”. With `CCN(CC)C(=O)CN(c1ccc2c(c1)OCO2)S(C)(=O)=O` the Potency was “inactive”. `COc1ccc(-c2nn(CCC(=O)O)cc2/C=C2\SC(N)=NC2=O)cc1` was tested, and the Potency was inconclusive: 15.8 µM [inhibitor, full curve]. With `COc1ccc2oc(C(=O)NC3(C)CCS(=O)(=O)C3)c(C)c2c1` (centres undefined) the Potency was inconclusive: 31.6 µM [inhibitor, full curve, poor fit]. In the case of `CN(C)c1ccc(/C=N/NC(=O)c2ccccc2O)o1`, the Potency is reported as inconclusive: 14.1 µM [inhibitor, full curve, poor fit]. `O=C(CCl)N1c2ccccc2Oc2ccc3ccccc3c21` was tested, and the activity change, negative = inhibition was inconclusive: -50.8% [inhibitor]. In the case of `O=C(/C=C/c1ccco1)N1CCC(Cc2ccccc2)CC1`, the Potency is reported as inconclusive: 28.2 µM [inhibitor, full curve, poor fit]. For `NC1=NC(=O)/C(=C/c2ccc(-c3ccc(S(N)(=O)=O)cc3)o2)S1`, the Potency was active: 35.5 µM. In the case of `O=C(N/N=C/c1cc(Br)c(O)c(Br)c1)c1cc2c(ccc3ccccc32)o1`, the Potency is reported as active: 35.5 µM. `COc1ccc(NC(=O)COC(=O)c2ccc3c(c2)OCO3)c(OC)c1` was tested, and the Potency was inconclusive: 28.2 µM [inhibitor, full curve]. For `COc1cc(OC)cc(C(=O)Nn2cc(C(=O)Nc3ccccc3F)c3ccccc3c2=O)c1`, the Potency was inconclusive: 14.1 µM [inhibitor, single point]. For `Cc1noc(NS(=O)(=O)c2ccc(NC(=O)c3ccc(N4C(=O)c5ccccc5C4=O)cc3)cc2)c1C`, the Potency was inconclusive: 25.1 µM [inhibitor, full curve]. For `COC(=O)c1ccccc1NC1=C/C(=N\S(=O)(=O)c2ccc(C(=O)O)cc2)c2ccccc2C1=O`, the Potency was inconclusive: 28.2 µM [inhibitor, single point]. In the case of `CCCC(=O)Nc1ccc(NC(=O)Cc2ccccc2)cn1`, the Potency is reported as “inactive”. `Cc1cc(NC(=O)CSc2nnc(-c3cccc(F)c3)n2N)no1` was tested, and the Potency was “inactive”. With `CCOC(=O)Cc1nnc(NC(=O)CSc2nnc3c4ccccc4n(C)c3n2)s1` the Potency was inconclusive: 2.82 µM [inhibitor, full curve, poor fit]. `COC(=O)C1=C(C)N(CCc2c[nH]c3ccccc23)C(=O)/C1=C\N(C)C` was tested, and the Potency was “inactive”. For `O=[N+]([O-])c1ccc2nc(NS(=O)(=O)c3ccc(F)cc3)sc2c1`, the Potency was inconclusive: 2.82 µM [inhibitor, full curve, poor fit]. With `CCCc1cc(C(=O)OC)c(NC(=O)CCC(=O)O)s1` the Potency was inconclusive: 25.1 µM [inhibitor, single point]. `O=C1c2ccccc2-c2onc3ccc(N4CCCC4)c1c23` was tested, and the Potency was active: 22.4 µM. In the case of `CC(=O)Nc1ccc(S(=O)(=O)NNC(=O)c2cccc(Cl)c2)cc1`, the Potency is reported as “inactive”. In the case of `COc1ccc(CCNC(=O)c2ccc3nc(-c4ccco4)c(-c4ccco4)nc3c2)cc1OC`, the Potency is reported as active: 35.5 µM. With `CNC(=O)c1nc(C)n(-c2ccc(Cl)cc2Cl)n1` the Potency was active: 79.4 µM. `Cc1ccc(S(=O)(=O)c2ncccc2[N+](=O)[O-])cc1` was tested, and the Potency was active: 50.1 µM. `COc1ccc(-c2cc(NC=O)c3ncc(-c4cccc(C(=O)NCCN(C)C)c4)n3c2)cc1` was tested, and the Potency was inconclusive: 39.8 µM [inhibitor, single point]. In the case of `CC(C)S(=O)(=O)C1=NSC2=NC(=O)/C(=C\c3ccc(-c4ccccc4)o3)C(=N)N21`, the Potency is reported as inconclusive: 28.2 µM [inhibitor, full curve]. With `CCOC(=O)C(C)Sc1nc(-c2ccco2)cc(C(F)(F)F)c1C#N` (centres undefined) the Potency was inconclusive: 56.2 µM [inhibitor, partial curve]. With `O=C(O)c1ccc(COc2ccc3ccccc3c2/C=C2/NC(=O)N(Cc3ccc(F)cc3)C2=O)cc1` the Potency was active: 79.4 µM. For `COc1ccc(OC)c(Nc2nc(-c3ccc(O)c(O)c3)cs2)c1`, the Potency was inconclusive: 50.1 µM [inhibitor, partial curve]. With `O=C(COc1cccnc1[N+](=O)[O-])c1ccc(Cl)s1` the Potency was inconclusive: 56.2 µM [inhibitor, partial curve]. With `O=C(COC(=O)c1ccccc1O)Nc1ncc(Cl)cc1Cl` the Potency was inconclusive: 50.1 µM [inhibitor, partial curve]. For `C=CCn1c(SCc2cc(C(C)=O)ccc2OCC)nc2ccccc2c1=O`, the Potency was inconclusive: 20 µM [inhibitor, single point]. With `COc1ccc(-n2cc3c(-c4cccc(Br)c4)nnc(C)c3n2)cc1` the Potency was inconclusive: 63.1 µM [inhibitor, single point]. With `CC(C)OC(=O)c1c2c(n3ccccc13)C(=O)c1ccccc1C2=O` the Potency was active: 89.1 µM. With `COc1ccc(-c2nn(-c3ccccc3)cc2C(=O)Nc2ccc(C(=O)O)cc2)cc1` the Potency was inconclusive: 10 µM [inhibitor, partial curve]. For `CC(C)[C@H](NC(=O)Cc1ccccc1)C(=O)OCc1cc(=O)n2c(n1)sc1ccccc12`, the Potency was inconclusive: 56.2 µM [inhibitor, partial curve, poor fit]. For `O=C(N/N=C/C=C/c1ccc([N+](=O)[O-])cc1)c1cccs1`, the Potency was inconclusive: 28.2 µM [inhibitor, single point]. With `O=C(O)C1=C(Nc2ccccc2)OCC1=O` the Potency was “inactive”. With `COc1cc(N=c2ssnc2Cl)c(OC)cc1Cl` the Potency was active: 56.2 µM. For `Cn1c(N)c(C(=O)COC(=O)C2(c3ccc(Cl)cc3)CCCC2)c(=O)n(C)c1=O`, the Potency was inconclusive: 79.4 µM [inhibitor, single point]. With `Cc1cccc(C)c1NC(=O)CN(C)C(=O)c1ccc2nc[nH]c2c1` the activity change, negative = inhibition was inactive: -8.39% [at 11.6 µM].

— PubChem BioAssay AID651768 (National Center for Advancing Translational Sciences (NCATS), 2012)
% is scaled to controls: 0 for no effect and ±100 for the full control effect; potency is read from the fitted curve at half-maximal effect.
Also: nearly all actives have a fitted effect of over 55% in size.
